Source: PMC10163288
Some of the results follow.

B1: il2ra_site2_2erj_sap_22_mot_HHH_b1_02968_000000142_0001_22_39_H_._HHH_b2_05170_0001_0000300027_0000001_0_0001 (protein)
chain: SSSSDEAEELLEEAKRLLEEGDPEQAFAVLARAALIALRAGDEELVREIRELAEEVFRAGSSSSS
B2: il2ra_site1_1z92_sap_12_mot_HHH_b1_07036_000000095_0001_39_53_H_._HHH_b2_03250_0001_0000100002_0000001_0_0001_af2pred_0001_af2pred (protein)
chain: SSSDEERLRRSLERLVELAVKEAGLSEEQKEELERLVEELIERGVDFHEAVRLILRLALELSSSS
B3: il2ra_site1_2b5i_sap_18_mot_HHH_b2_04997_af2_000000138_0001_1_34_H_._799e2d46ed21d3efa93e27a97ae18933_0001_1_af2_0001_0000100007_0000001_0_0001_af2pred_dldesign … (protein)
chain: SSSSSEVEKKVNELIEQARKEEDPEKREKILNEAYDLAEEAEDKNLIYKVVKERYLLENLSSSSS
B4: il2ra_site1_3nfp_normal_mot_66bb1f637706d7249e1dd387c51866da_0001_1_000000092_0001_54_65_H_._HHH_b2_01012_0001_0000100007_0000001_0_af2pred_0001_af2pred_1_swapp … (protein)
chain: SSSSSTEYLERLAERIEKAVDDREQAERLFKRFLEDAEKTGDERQLERLEELAREVLEKLSSSSS
B5: il2ra_site2_3nfp_sap_8_mot_HHH_b1_04622_000000276_0001_1_16_H_._HHH_b1_03679_af2_0001_0000200011_0000001_0_0001 (protein)
chain: SSSSSEELEELLREAEELLEEGDRFQATRVLAEAMELALRLNDREAVRKVLELFEHLRRLYSSSS
B6: il2ra_site2_2erj_normal_mot_HHH_b2_01275_af2_000000073_0001_23_39_H_._HHH_b2_00463_0001_0000300023_0000001_0 (protein)
chain: SSSSSDKEEVEEEVEEILRRAEETDDLREAYKLAVRALRLAAELGDPELQELVRRVVERLSSSSS
B7: il2ra_site2_3nfp_normal_mot_HHH_b1_00660_af2_000000090_0001_40_57_H_._HHH_b1_06769_0001_0000400011_0000001_0_af2pred_0001_af2pred (protein)
chain: SSSSSSEELEEEVEELLERAKHIDDPEEREELLHEASELAYELQNFQLFALVSLVIEKLRSSSSS
B8: il2ra_site2_3nfp_sap_25_mot_HHH_b1_00784_000000093_0001_41_55_H_._3aefc51b0440b32321f790e365bc563e_0001_1_0001_0000300021_0000001_0_0001_af2pred_0001_af2pred (protein)
chain: SSSSDEEEEAERLEKELRELEENNDEERLRRLAEEAAEFARQTNDEELFAIALEIRRKLDSSSSS
B9: il2ra_site2_2erj_sap_20_mot_HHH_b1_06165_000000050_0001_41_56_H_._HHH_b2_00716_0001_0000600018_0000001_0_0001 (protein)
chain: SSSSSELVQEALRIIKEAFERGLSEEEIKELLERLLEEARELGDEDEVAMIETLIEYLERLSSSS
B10: il2ra_site1_3nfp_normal_mot_HHH_b1_03753_af2_000000088_0001_41_54_H_._8822628e7dce7141ff94e8fdab707b8c_0001_1_0001_0000100001_0000001_0_af2pred_0001_af2pred_swa … (protein)
chain: SEEEEEAEELLKKSLPPRAVEALKFLAEAVKEGNPSAERKLRVDLKAARQLGDEAVVRAIELLLK
B11: il2ra_site1_3nfp_normal_mot_HHH_b1_03753_af2_000000088_0001_41_54_H_._HHH_b1_07059_af2_0001_0000600012_0000001_0_af2pred_0001_af2pred_swapped (protein)
chain: SSSSSEEREELQRLIEKAMELAFQGDHEEAERLLREAKRIAEELGNERLERRIEFDLKAISSSSS
B12: il2ra_site1_2b5i_sap_13_mot_HHH_b2_04131_000000150_0001_1_16_H_._HHH_b2_04520_af2_0001_0000200022_0000001_0_0001_af2pred_dldesign_0_af2pred (protein)
chain: SSSSSTSPEELVDELIERARKEEDPLLRRKILTLARRVARKANDPALVARVEAVEKELAASSSSS
B13: il2ra_site1_2b5i_sap_15_mot_HHH_b1_05017_af2_000000115_0001_1_18_H_._HHH_b2_00737_af2_0001_0000400026_0000001_1_0001_af2pred_dldesign_0_af2pred (protein)
chain: SSSSSSSSQRAKLEEAERILKELSPEEARAKLAELLAEARAAKDERTARALELALEEASSSSSSS
B14: il2ra_site1_1z92_normal_mot_HHH_b2_01902_af2_000000252_0001_25_40_H_._HHH_b1_08109_0001_0000100030_0000001_0 (protein)
chain: SSSSLEELKKLDRFIVELVEEFGLDDEQAQELLRVALRLQSEGLSPEEIEEILEEVAERLSSSSS
B15: il2ra_site1_2b5i_sap_13_mot_HHH_b2_07873_af2_000000005_0001_23_39_H_._468c40a63644cca753a3029f4a225358_0001_1_0001_0000600018_0000001_0_0001 (protein)
chain: SSSSDSREAQELFHQADEADRNGDPERARELLEEALEIAEEAGSPNLFRMIEAALRQARASSSSS
B16: il2ra_site2_2erj_normal_mot_HHH_b1_07741_000000192_0001_1_20_H_._9b1ece5d1ebc94355a99c96473898622_0001_1_af2_0001_0000500004_0000001_0 (protein)
chain: DDEEFLEEAARENPETFIKYAKRLAENAGNPELLELVEKLEEEVKKGEIPPEEAAELVVRVFREI
B17: il2ra_site1_1z92_sap_21_mot_3afbd42359c492d9a5ba12d7e5b15de5_0001_000000167_0001_17_33_H_._HHH_b1_04942_0001_0000300013_0000001_0_0001_af2pred_0001_af2pred_1_sw … (protein)
chain: SSSSDEEEELEEIVEEIVEEFGLSEEEEELLRRDAKQALKRGFSLRSIERILRHAAERDLSSSSS
B18: il2ra_site2_2erj_normal_mot_HHH_b1_04777_000000131_0001_1_19_H_._HHH_b2_05509_0001_0000200021_0000001_0 (protein)
chain: SSSSSDELEEFVEELIKEFNLSELAKNYLERWARISKEKGQSEEEIKKALEQAAEADLRSSSSSS
B19: il2ra_site2_2erj_normal_mot_ca9fcc9ace360711d783d1260e4fbff1_0001_1_af2_000000007_0001_15_32_H_._HHH_b2_06346_af2_0001_0000200012_0000001_0 (protein)
chain: SSSSSDEEVQEEVREILEEAEKIEDLEEAFRLAVEALRVASEGNDEEALEEVLRWLEERSSSSSS

Molecular target: il2ra, P01589
Assay: yeast display titration

Apparent Kd, inactive:
B1 no binding seen
B2 > 528 nM
B3 no binding seen
B4 no binding seen
B5 no binding seen
B6 no binding seen
B7 no binding seen
B8 no binding seen
B9 no binding seen
B10 no binding seen
B11 > 86.3 nM
B12 no binding seen
B13 no binding seen
B14 no binding seen
B15 no binding seen
B16 no binding seen
B17 no binding seen
B18 no binding seen
B19 no binding seen

No new results follow: entries from further up.
Apparent Kd, inactive:
B16 no binding seen
B17 no binding seen
